{"sequences": {"note": "Chains of the proteins cited; added tags and fusions are not shown. Lines headed by an entry give the natural chain unless they say otherwise; changes in a name come on top.", "UniProt O43189": "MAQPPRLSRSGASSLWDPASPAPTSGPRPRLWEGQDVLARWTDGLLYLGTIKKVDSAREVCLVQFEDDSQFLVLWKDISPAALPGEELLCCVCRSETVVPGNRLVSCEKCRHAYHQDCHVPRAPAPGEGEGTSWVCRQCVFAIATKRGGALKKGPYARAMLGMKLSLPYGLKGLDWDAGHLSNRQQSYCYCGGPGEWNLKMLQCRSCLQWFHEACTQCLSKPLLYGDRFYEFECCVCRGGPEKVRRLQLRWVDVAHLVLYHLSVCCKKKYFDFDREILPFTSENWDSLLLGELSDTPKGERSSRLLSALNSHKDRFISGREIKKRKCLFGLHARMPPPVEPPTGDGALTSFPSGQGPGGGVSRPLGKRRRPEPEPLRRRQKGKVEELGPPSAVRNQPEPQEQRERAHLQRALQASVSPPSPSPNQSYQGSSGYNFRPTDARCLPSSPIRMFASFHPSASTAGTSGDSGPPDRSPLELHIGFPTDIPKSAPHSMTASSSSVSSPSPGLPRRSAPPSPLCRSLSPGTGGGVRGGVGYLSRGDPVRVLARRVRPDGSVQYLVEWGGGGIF", "UniProt P12955": "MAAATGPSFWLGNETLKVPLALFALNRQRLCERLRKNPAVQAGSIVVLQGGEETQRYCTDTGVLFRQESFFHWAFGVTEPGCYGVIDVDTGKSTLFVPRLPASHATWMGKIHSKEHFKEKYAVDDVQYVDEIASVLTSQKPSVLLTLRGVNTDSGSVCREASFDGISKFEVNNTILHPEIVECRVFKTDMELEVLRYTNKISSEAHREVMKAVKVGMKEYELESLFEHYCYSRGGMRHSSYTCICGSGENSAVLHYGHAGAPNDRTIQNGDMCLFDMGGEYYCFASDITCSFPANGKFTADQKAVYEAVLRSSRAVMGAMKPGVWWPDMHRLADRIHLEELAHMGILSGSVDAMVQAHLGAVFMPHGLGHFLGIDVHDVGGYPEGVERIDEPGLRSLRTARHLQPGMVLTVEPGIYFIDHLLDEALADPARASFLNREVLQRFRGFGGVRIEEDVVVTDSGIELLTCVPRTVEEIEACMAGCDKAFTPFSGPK", "UniProt P07737, whole entry, looked up": "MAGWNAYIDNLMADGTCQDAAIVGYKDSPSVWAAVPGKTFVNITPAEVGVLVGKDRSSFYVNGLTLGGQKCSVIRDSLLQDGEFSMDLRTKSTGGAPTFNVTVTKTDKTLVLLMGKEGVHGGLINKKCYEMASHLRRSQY", "UniProt Q8IWS0": "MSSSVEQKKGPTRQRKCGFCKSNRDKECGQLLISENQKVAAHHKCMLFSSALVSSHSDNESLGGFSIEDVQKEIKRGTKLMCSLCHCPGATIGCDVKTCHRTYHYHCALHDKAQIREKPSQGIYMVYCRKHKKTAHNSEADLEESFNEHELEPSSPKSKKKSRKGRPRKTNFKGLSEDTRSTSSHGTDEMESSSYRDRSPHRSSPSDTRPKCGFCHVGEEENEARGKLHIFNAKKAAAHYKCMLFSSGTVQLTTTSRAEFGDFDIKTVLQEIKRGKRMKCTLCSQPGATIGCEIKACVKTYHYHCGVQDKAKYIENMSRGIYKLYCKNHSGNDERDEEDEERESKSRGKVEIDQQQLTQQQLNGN", "UniProt A8MW92": "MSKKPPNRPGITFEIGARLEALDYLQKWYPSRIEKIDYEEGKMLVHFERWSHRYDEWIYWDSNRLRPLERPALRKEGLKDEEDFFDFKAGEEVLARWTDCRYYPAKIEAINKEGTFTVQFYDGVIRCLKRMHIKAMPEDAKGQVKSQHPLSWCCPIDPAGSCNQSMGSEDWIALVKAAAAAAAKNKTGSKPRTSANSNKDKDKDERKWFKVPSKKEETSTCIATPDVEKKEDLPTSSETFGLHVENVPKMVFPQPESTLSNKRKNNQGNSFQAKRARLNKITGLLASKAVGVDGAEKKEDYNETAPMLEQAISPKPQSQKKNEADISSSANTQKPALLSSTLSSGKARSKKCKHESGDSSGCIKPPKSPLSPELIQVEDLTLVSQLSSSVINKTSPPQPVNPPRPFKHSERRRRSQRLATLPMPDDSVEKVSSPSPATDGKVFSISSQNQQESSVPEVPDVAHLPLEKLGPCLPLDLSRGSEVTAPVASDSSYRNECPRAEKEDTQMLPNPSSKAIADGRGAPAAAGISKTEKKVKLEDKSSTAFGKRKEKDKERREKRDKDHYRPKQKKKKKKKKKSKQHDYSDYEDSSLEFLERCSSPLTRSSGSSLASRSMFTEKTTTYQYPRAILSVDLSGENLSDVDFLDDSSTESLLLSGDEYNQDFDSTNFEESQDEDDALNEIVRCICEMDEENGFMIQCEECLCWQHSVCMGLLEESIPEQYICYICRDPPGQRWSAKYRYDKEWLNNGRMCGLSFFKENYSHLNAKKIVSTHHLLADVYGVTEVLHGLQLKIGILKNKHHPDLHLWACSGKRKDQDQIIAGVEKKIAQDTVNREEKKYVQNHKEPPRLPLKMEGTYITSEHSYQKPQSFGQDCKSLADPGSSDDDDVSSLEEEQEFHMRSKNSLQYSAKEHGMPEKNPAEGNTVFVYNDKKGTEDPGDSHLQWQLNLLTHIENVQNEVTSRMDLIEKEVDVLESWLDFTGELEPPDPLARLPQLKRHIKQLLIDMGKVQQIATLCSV", "UniProt P42356, whole entry, looked up": "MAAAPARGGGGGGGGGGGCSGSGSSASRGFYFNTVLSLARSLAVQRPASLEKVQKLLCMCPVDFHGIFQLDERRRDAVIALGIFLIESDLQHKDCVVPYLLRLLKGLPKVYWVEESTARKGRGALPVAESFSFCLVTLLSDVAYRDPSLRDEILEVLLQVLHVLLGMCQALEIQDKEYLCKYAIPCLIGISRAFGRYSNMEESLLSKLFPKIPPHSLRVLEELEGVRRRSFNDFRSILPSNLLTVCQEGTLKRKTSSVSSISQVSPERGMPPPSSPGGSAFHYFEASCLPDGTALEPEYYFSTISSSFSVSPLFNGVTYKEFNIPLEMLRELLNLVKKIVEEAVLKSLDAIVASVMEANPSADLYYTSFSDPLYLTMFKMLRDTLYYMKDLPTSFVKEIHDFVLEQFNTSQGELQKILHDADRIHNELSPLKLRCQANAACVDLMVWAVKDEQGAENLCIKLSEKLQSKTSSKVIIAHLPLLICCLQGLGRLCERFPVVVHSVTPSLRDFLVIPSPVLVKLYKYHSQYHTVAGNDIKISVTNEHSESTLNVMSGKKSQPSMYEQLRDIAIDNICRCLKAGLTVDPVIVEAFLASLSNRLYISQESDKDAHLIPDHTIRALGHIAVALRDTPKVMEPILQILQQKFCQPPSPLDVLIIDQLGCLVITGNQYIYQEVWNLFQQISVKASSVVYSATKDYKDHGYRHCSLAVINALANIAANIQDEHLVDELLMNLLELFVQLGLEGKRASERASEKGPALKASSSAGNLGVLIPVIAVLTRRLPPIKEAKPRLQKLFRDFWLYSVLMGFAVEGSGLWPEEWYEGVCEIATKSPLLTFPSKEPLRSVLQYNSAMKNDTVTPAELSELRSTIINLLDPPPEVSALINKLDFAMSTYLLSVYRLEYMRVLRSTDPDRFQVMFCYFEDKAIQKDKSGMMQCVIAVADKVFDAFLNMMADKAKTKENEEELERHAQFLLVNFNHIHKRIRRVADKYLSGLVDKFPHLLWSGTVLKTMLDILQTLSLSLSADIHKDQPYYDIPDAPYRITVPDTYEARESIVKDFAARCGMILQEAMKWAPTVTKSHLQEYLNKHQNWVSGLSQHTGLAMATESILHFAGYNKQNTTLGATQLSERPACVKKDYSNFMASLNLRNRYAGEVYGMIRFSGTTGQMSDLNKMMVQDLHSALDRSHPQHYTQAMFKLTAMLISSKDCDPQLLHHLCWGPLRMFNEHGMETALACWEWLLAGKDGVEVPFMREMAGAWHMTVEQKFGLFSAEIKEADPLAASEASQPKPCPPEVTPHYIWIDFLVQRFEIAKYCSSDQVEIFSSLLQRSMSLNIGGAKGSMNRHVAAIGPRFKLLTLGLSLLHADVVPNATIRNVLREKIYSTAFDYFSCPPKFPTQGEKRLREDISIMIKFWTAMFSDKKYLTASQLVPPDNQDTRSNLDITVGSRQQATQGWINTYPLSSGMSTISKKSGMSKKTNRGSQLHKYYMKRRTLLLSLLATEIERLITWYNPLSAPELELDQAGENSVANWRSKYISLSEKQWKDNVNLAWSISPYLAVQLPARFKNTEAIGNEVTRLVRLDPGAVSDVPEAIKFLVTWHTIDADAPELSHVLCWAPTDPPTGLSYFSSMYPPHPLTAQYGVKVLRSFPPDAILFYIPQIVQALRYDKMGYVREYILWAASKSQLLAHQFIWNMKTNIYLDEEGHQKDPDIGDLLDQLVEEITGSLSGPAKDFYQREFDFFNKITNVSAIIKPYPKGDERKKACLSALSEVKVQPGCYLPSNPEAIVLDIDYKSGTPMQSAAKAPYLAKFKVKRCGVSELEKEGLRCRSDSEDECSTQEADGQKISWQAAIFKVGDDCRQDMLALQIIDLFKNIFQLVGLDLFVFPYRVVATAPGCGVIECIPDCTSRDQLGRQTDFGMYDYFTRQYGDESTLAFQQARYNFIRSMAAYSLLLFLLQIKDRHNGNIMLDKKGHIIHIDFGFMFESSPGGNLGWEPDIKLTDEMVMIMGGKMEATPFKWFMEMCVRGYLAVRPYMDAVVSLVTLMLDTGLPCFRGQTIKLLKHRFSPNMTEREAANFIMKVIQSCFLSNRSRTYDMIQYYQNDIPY", "UniProt O43175": "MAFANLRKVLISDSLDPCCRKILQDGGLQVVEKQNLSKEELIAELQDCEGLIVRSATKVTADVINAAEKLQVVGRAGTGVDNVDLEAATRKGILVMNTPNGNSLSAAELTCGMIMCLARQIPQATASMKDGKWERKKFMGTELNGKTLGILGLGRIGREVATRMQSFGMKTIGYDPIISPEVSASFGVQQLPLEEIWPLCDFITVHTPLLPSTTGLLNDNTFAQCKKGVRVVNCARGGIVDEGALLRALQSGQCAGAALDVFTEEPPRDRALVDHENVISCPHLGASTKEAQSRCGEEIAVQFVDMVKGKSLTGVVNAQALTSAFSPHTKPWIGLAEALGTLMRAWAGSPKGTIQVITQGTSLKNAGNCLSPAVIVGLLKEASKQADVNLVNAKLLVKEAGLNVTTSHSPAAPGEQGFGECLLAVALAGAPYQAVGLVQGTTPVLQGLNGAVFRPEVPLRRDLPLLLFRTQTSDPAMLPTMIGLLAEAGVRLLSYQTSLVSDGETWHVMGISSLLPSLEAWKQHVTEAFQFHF", "UniProt P00558": "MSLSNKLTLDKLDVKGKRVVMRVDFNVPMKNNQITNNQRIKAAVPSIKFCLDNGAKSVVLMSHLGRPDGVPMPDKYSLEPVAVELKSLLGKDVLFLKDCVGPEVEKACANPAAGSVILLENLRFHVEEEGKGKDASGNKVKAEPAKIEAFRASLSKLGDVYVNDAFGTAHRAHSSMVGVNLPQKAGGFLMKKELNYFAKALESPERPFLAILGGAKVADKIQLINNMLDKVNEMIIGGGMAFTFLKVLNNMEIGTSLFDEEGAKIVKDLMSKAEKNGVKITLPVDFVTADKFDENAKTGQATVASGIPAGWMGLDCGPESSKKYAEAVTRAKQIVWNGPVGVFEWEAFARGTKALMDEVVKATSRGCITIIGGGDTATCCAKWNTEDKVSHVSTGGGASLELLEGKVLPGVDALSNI", "UniProt Q14442": "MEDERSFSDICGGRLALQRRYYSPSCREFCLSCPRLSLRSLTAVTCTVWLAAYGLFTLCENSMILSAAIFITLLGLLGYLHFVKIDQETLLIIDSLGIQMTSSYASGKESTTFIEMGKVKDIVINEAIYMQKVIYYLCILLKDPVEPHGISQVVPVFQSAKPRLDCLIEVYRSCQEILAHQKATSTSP", "UniProt Q8WUB8": "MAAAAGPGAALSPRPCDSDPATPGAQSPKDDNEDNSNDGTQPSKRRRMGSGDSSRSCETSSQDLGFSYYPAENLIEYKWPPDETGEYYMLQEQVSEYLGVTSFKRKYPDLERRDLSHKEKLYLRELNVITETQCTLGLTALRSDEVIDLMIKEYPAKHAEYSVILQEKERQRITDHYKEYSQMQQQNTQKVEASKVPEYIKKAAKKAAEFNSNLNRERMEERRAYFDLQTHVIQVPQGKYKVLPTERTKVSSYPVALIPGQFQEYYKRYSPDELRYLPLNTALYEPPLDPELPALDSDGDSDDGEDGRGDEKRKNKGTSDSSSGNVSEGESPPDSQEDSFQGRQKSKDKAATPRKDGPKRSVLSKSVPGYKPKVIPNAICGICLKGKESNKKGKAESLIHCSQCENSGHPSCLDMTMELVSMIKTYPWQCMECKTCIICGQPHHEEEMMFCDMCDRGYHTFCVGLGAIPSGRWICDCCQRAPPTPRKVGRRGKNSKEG"}, "source": "the supplement of paper PMC12067093", "about": "“Discovery and optimisation of a covalent ligand for TRIM25 and its application to targeted protein ubiquitination” (Chemical Science, 2025)", "compound": "CC1Cc2ccccc2N1C(=O)C1CCCN(C1)C(=O)CCl (mixture of isomers) [TRIM25 ligand 11 (diastereomer mixture)]", "experiment": "probe-labelled cysteine peptide fold change vs DMSO (competition) (log2 fold change); higher = less target engagement (more negative = stronger competition)", "conditions": "THP-1, incubation time: 4 h", "note": "This is one part of the list.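 Also: competitive chemoproteomic profiling in live THP-1 cells with an iodoacetamide desthiobiotin (IA-DTB) probe, comparing probe-labelled peptide intensities in compound-treated cells against DMSO-treated controls.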"}
{"target": "PHF1_O43189_139_QCVFAIATK (UniProt O43189)", "values": [{"measurement": "probe-labelled cysteine peptide fold change", "setting": "10 µM", "value": 0.0808}, {"measurement": "probe-labelled cysteine peptide fold change", "setting": "50 µM", "value": 0.0537}]}
{"target": "PFKP_Q01813_123_GITNLCVIGGDGSLTGANLFR (UniProt Q01813)", "values": [{"measurement": "probe-labelled cysteine peptide fold change", "setting": "10 µM", "value": -0.0831}, {"measurement": "probe-labelled cysteine peptide fold change", "setting": "50 µM", "value": -0.144}]}
{"target": "PIAS1_O75925_228_VNTKPCSLPGYLPPTK (UniProt O75925)", "values": [{"measurement": "probe-labelled cysteine peptide fold change", "setting": "10 µM", "value": -0.13}, {"measurement": "probe-labelled cysteine peptide fold change", "setting": "50 µM", "value": -0.154}]}
{"target": "PEX3_P56589_337_IIPIVNGQIHSVCSETPSHFVQDLLTMEQVK (UniProt P56589)", "values": [{"measurement": "probe-labelled cysteine peptide fold change", "setting": "10 µM", "value": 0.0747}, {"measurement": "probe-labelled cysteine peptide fold change", "setting": "50 µM", "value": -0.187}]}
{"target": "PIK3AP1_Q6ZUJ8_358_NLTALLLTCPGALQAYSVANK (UniProt Q6ZUJ8)", "values": [{"measurement": "probe-labelled cysteine peptide fold change", "setting": "10 µM", "value": -0.0195}, {"measurement": "probe-labelled cysteine peptide fold change", "setting": "50 µM", "value": -0.215}]}
{"target": "PEPD_P12955_230_EYELESLFEHYCYSR (UniProt P12955)", "values": [{"measurement": "probe-labelled cysteine peptide fold change", "setting": "10 µM", "value": 0.103}, {"measurement": "probe-labelled cysteine peptide fold change", "setting": "50 µM", "value": 0.0141}]}
{"target": "PFN1_P07737_128_CYEMASHLR (UniProt P07737)", "values": [{"measurement": "probe-labelled cysteine peptide fold change", "setting": "10 µM", "value": -0.0273}, {"measurement": "probe-labelled cysteine peptide fold change", "setting": "50 µM", "value": 0.0171}]}
{"target": "PHF6_Q8IWS0_242_CMLFSSGTVQLTTTSR (UniProt Q8IWS0)", "values": [{"measurement": "probe-labelled cysteine peptide fold change", "setting": "10 µM", "value": -0.0147}, {"measurement": "probe-labelled cysteine peptide fold change", "setting": "50 µM", "value": 0.0104}]}
{"target": "PIGT_Q969N2_272_TLTEPCPLASESR (UniProt Q969N2)", "values": [{"measurement": "probe-labelled cysteine peptide fold change", "setting": "10 µM", "value": 0.091}, {"measurement": "probe-labelled cysteine peptide fold change", "setting": "50 µM", "value": -0.0616}]}
{"target": "PHF20L1_A8MW92_497_GSEVTAPVASDSSYRNECPR (UniProt A8MW92)", "values": [{"measurement": "probe-labelled cysteine peptide fold change", "setting": "10 µM", "value": 0.0513}, {"measurement": "probe-labelled cysteine peptide fold change", "setting": "50 µM", "value": -0.16}]}
{"target": "PGD_P52209_170+171_VGTGEPCCDWVGDEGAGHFVK (UniProt P52209)", "values": [{"measurement": "probe-labelled cysteine peptide fold change", "setting": "10 µM", "value": -0.0163}, {"measurement": "probe-labelled cysteine peptide fold change", "setting": "50 µM", "value": -0.204}]}
{"target": "PI4KA_P42356_459_DEQGAENLCIK (UniProt P42356)", "values": [{"measurement": "probe-labelled cysteine peptide fold change", "setting": "10 µM", "value": 0.184}, {"measurement": "probe-labelled cysteine peptide fold change", "setting": "50 µM", "value": -0.104}]}
{"target": "PHF8_Q9UPP1-2_8_ASVPVYCLCR (UniProt Q9UPP1)", "values": [{"measurement": "probe-labelled cysteine peptide fold change", "setting": "10 µM", "value": 0.173}, {"measurement": "probe-labelled cysteine peptide fold change", "setting": "50 µM", "value": 0.174}]}
{"target": "PDZD8_Q8NEN9_667_DVTSETSCPTK (UniProt Q8NEN9)", "values": [{"measurement": "probe-labelled cysteine peptide fold change", "setting": "10 µM", "value": -0.316}, {"measurement": "probe-labelled cysteine peptide fold change", "setting": "50 µM", "value": -0.444}]}
{"target": "PHF6_Q8IWS0_107_TYHYHCALHDK (UniProt Q8IWS0)", "values": [{"measurement": "probe-labelled cysteine peptide fold change", "setting": "10 µM", "value": -0.0754}, {"measurement": "probe-labelled cysteine peptide fold change", "setting": "50 µM", "value": -0.167}]}
{"target": "PFKFB3_Q16875_440_VESIYLNVESVCTHR (UniProt Q16875)", "values": [{"measurement": "probe-labelled cysteine peptide fold change", "setting": "10 µM", "value": 0.295}, {"measurement": "probe-labelled cysteine peptide fold change", "setting": "50 µM", "value": 0.354}]}
{"target": "PHGDH_O43175_18_KVLISDSLDPCCR (UniProt O43175)", "values": [{"measurement": "probe-labelled cysteine peptide fold change", "setting": "10 µM", "value": -0.318}, {"measurement": "probe-labelled cysteine peptide fold change", "setting": "50 µM", "value": -0.211}]}
{"target": "PGK1_P00558_367_GCITIIGGGDTATCCAK (UniProt P00558)", "values": [{"measurement": "probe-labelled cysteine peptide fold change", "setting": "10 µM", "value": 0.103}, {"measurement": "probe-labelled cysteine peptide fold change", "setting": "50 µM", "value": 0.0351}]}
{"target": "PIGH_Q14442_166_LDCLIEVYR (UniProt Q14442)", "values": [{"measurement": "probe-labelled cysteine peptide fold change", "setting": "10 µM", "value": 0.0428}, {"measurement": "probe-labelled cysteine peptide fold change", "setting": "50 µM", "value": 0.0167}]}
{"target": "PHF10_Q8WUB8_451_TCIICGQPHHEEEMMFCDMCDR (UniProt Q8WUB8)", "values": [{"measurement": "probe-labelled cysteine peptide fold change", "setting": "10 µM", "value": -0.0635}, {"measurement": "probe-labelled cysteine peptide fold change", "setting": "50 µM", "value": 0.087}]}
{"target": "PHIP_Q8WWQ0_1335_QCEELLNLIFQCEDSEPFR (UniProt Q8WWQ0)", "values": [{"measurement": "probe-labelled cysteine peptide fold change", "setting": "10 µM", "value": 0.262}, {"measurement": "probe-labelled cysteine peptide fold change", "setting": "50 µM", "value": -0.00564}]}
{"target": "PEPD_P12955_158_GVNTDSGSVCR (UniProt P12955)", "values": [{"measurement": "probe-labelled cysteine peptide fold change", "setting": "10 µM", "value": 0.0721}, {"measurement": "probe-labelled cysteine peptide fold change", "setting": "50 µM", "value": -0.0568}]}
{"target": "PI4KA_P42356_1215_DCDPQLLHHLCWGPLR (UniProt P42356)", "values": [{"measurement": "probe-labelled cysteine peptide fold change", "setting": "10 µM", "value": 0.121}, {"measurement": "probe-labelled cysteine peptide fold change", "setting": "50 µM", "value": 0.294}]}
{"target": "PHF10_Q8WUB8_454_TCIICGQPHHEEEMMFCDMCDR (UniProt Q8WUB8)", "values": [{"measurement": "probe-labelled cysteine peptide fold change", "setting": "10 µM", "value": -0.265}, {"measurement": "probe-labelled cysteine peptide fold change", "setting": "50 µM", "value": -0.438}]}
